Structures are written as SMILES. Structures can show the parent of a compound that is named as a salt. Some of the results follow. Small differences around the control level are noise.

From the supplement of paper PMC11348887 come the findings set out here.

The test system of the assay is hPSC-derived cortical neurons (WA09). Put plainly: KCl-induced FOS+/EGR-1+ double-positive nuclei fraction z-score (KCl minus unstimulated); higher = stronger activity-induced IEG response. The conditions noted are these: 5 µM; treatment: days 7-14 after plating, readout day 21.
For the compound `Cn1cc(-c2ccc(F)c(C(F)(F)F)c2)nc1C1CCN(c2ncnc3[nH]ncc23)CC1`, the “KCl-induced FOS+/EGR-1+ double-positive nuclei fraction z-score” value was determined as 0.0726. The same measure for `c1cc(-c2cnn3cc(-c4ccc(OCCN5CCCCC5)cc4)cnc23)ccn1` [Dorsomorphin (Compound C)]: -0.402; for `CN1CCN(C2=Nc3ccccc3Oc3ccc(Cl)cc32)CC1` [Loxapine Succinate]: -0.713; for `NC(=O)c1cnc2[nH]ccc2c1NC1[C@@H]2CC3C[C@H]1CC(O)(C3)C2` (stereo partly specified): -0.354. As for `CN(C)c1cc(NC(=O)CNC(C)(C)C)c(O)c2c1C[C@H]1C[C@H]3[C@H](N(C)C)C(O)=C(C(N)=O)C(=O)[C@@]3(O)C(O)=C1C2=O` [Tigecycline], the “KCl-induced FOS+/EGR-1+ double-positive nuclei fraction z-score” value came to 1.55. For `Cn1c(Nc2ccc(C(F)(F)F)cc2)nc2cc(Oc3ccnc(-c4ncc(C(F)(F)F)[nH]4)c3)ccc21` the value was -1.34. `CC(=O)NO` [Acetohydroxamic acid]: the “KCl-induced FOS+/EGR-1+ double-positive nuclei fraction z-score” value was 0.25. The same measure for `CC(CNC(=O)c1cccnc1)NC(=O)c1cccnc1` (stereo unspecified) [Nicaraven]: -0.23; for `O=C(CCN1CCN(C(=O)OCc2cc(Cl)cc(Cl)c2)CC1)c1ccc2[nH]c(=O)oc2c1`: 0.444; for `CN1[C@@H]2CC[C@H]1C[C@@H](OC(=O)c1c[nH]c3ccccc13)C2` [Tropisetron]: 2.45. The same measure for `CCS(=O)(=O)Nc1ccc2c(c1)/C(=C(/Nc1ccc(CN3CCCCC3)cc1)c1ccccc1)C(=O)N2` [Hesperadin]: -1.3. As to `CC(CN(C)C)CN1c2ccccc2CCc2ccccc21` (stereo unspecified) [Trimipramine Maleate], the “KCl-induced FOS+/EGR-1+ double-positive nuclei fraction z-score” value is -0.356. The same measure for `CC(=O)O[C@]1(C(C)=O)CC[C@H]2[C@@H]3C=C(Cl)C4=CC(=O)[C@@H]5C[C@@H]5[C@]4(C)[C@H]3CC[C@@]21C` [Cyproterone Acetate]: -0.852. For `CC(C(=O)O)c1cccc(Oc2ccccc2)c1` (stereo unspecified) [Fenoprofen calcium hydrate] the value was 0.13; for `CN[C@H]1CN(c2ccc3c(=O)c(C(=O)O)cn(-c4nccs4)c3n2)C[C@@H]1OC` [Voreloxin (SNS-595)], 2.29. Regarding `CN1CCN(C(=O)C2C(C(=O)O)[C@H]3CC[C@@H]2O3)CC1` (stereo partly specified), the “KCl-induced FOS+/EGR-1+ double-positive nuclei fraction z-score” value is 0.0387. For `c1ccc2c(Oc3nc(Nc4ccc(N5CCOCC5)cc4)c4ncn(C5CCCCC5)c4n3)cccc2c1` [Purmorphamine] the value was 0.822; for `C[C@H](NC(=O)C(=O)Nc1ccccc1C(C)(C)C)C(=O)N[C@@H](CC(=O)O)C(=O)COc1c(F)c(F)cc(F)c1F` [Emricasan], 0.844. Take `NC(=O)c1cnc(N[C@@H]2CCCC[C@@H]2N)nc1Nc1cccc(-n2nccn2)c1`: the “KCl-induced FOS+/EGR-1+ double-positive nuclei fraction z-score” value amounted to 0.274. The same measure for `CC(C)c1cc(-c2n[nH]c(=O)n2-c2ccc3c(ccn3C)c2)c(O)cc1O` [Ganetespib (STA-9090)]: -0.565; for `NC(=O)CCCSc1nc(N)nc(-c2c(Cl)cc3c4c(cccc24)COC3)n1`: -0.747; for `Cc1ccccc1C(C(=O)NC1CCCCC1)N(C(=O)Cn1ccnc1C)c1cccc(F)c1` (stereo unspecified): -0.835. For `CCc1cc(C(N)=S)ccn1` [Ethionamide], the “KCl-induced FOS+/EGR-1+ double-positive nuclei fraction z-score” value was found to be 0.529. As to `O=C(O)[C@H]1CSC(c2nc3ccc(O)cc3s2)=N1` [D-Luciferin], the “KCl-induced FOS+/EGR-1+ double-positive nuclei fraction z-score” value stood at 0.991.

`CCn1cc(C(=O)O)c(=O)c2cc(F)c(N3CCN(C)CC3)cc21` [Pefloxacin Mesylate]: the “KCl-induced FOS+/EGR-1+ double-positive nuclei fraction z-score” value is -0.709. On to `C=CCc1ccc(O)c(-c2cc(CC=C)ccc2O)c1` [Magnolol], for which the “KCl-induced FOS+/EGR-1+ double-positive nuclei fraction z-score” value is 0.268. The same measure for `CCOc1cc(N2CCC(O)CC2)ccc1Nc1ncc2c(n1)N(C)c1ccccc1C(=O)N2C`: -0.66; for `Cc1cc(NC(=O)C2=C(O)c3ccccc3S(=O)(=O)N2C)no1` [Isoxicam]: 0.198; for `CCCCCCCCCCC[C@@H](C[C@@H]1OC(=O)[C@H]1CCCCCC)OC(=O)[C@H](CC(C)C)NC=O` [Orlistat]: -0.19. The same measure for `N#Cc1ccc(-c2csc(NN=C3CCCC3)n2)cc1` [Remodelin]: -0.501; for `O[C@H]1[C@H](O)[C@@H](O)[C@H](O)[C@@H](O)[C@H]1O` [i-Inositol]: 2.07; for `O=C(OCc1ccccc1)c1ccccc1` [Benzyl benzoate]: 1.31. For `N=C(N)NC(=N)N1CCOCC1` [Moroxydine HCl] the value was 2.65. On to `OCc1cc(C(O)CNCCCCCCOCCCCc2ccccc2)ccc1O` (stereo unspecified) [Salmeterol Xinafoate], for which the “KCl-induced FOS+/EGR-1+ double-positive nuclei fraction z-score” value is -0.364. For `CC1(C)O[C@@H]2C[C@H]3[C@@H]4CCC5=CC(=O)CC[C@]5(C)[C@@]4(F)[C@@H](O)C[C@]3(C)[C@]2(C(=O)CCl)O1` [Halcinonide] the value was 0.0819; for `O=C(O)c1cc(I)ccc1NC(=O)[C@H](Cc1ccccc1)NCc1ccccc1`, -1.09.
